Results on one substance are retold here after PMC12480759.

Chains of the proteins cited; added tags and fusions are not shown. Lines headed by an entry give the natural chain unless they say otherwise; changes in a name come on top.
UniProt Q13568: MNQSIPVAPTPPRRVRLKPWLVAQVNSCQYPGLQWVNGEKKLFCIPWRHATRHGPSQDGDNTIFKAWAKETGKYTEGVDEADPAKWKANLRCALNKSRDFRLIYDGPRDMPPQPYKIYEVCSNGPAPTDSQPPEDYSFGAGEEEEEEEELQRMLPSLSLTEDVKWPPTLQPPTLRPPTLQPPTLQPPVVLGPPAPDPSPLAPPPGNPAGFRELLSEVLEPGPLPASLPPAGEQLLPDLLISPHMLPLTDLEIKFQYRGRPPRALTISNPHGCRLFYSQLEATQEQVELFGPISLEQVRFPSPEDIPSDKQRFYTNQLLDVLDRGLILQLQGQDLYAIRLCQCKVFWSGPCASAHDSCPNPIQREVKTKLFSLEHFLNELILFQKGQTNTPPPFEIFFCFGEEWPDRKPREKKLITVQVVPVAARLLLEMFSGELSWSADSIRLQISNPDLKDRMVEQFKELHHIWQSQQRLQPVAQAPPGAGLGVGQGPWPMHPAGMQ
UniProt Q99988: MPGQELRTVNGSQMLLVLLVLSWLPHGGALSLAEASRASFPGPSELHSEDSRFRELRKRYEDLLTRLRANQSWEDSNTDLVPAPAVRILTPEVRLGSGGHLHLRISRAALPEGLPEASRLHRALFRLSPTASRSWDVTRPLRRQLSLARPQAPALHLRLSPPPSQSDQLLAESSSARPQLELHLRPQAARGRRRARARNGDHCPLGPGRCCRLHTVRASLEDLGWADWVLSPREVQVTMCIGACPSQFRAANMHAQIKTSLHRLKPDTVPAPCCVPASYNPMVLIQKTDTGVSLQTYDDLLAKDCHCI

These are yes or no findings as the source states them, for the method shown. In cells and extracts the contact can be indirect. A result given as binding can be weak or reduced; the word gives no strength.

For the test, the target named is Interferon regulatory factor 5 (human (in HNSCC cells)) (UniProt Q13568). Kind of test: co-IP; coimmunoprecipitation in HNSCC cells; bait and antibody not stated in the text shown (methods in the Supplementary Materials).

Turning to “Growth differentiation factor 15 (from UniProt Q99988)”, the binding entry was “binds”.
